No constants are given. Whether binding was seen depends on the method and setting. In cells and extracts the contact can be indirect. Here binding means that the protein was enriched with, or labelled near, the bait; the list need not be complete. For part of these data: A no says only that the protein was not detected with the bait. For part of these data: Tags and fused reporters may be left off the sequences shown.
T1: VelB::3xFLAG (A. nidulans), C8VTS4
T1 chain: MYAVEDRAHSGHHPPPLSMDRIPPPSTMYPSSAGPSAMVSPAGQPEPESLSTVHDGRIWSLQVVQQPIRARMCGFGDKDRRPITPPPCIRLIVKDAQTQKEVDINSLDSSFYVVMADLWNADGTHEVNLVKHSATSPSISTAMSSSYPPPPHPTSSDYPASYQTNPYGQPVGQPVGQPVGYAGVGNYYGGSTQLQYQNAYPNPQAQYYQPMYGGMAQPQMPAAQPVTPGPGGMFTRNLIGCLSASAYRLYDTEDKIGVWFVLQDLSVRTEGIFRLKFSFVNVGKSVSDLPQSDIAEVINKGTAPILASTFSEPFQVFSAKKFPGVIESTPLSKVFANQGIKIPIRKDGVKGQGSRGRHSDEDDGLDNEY


Experiments:
[1] = target: VelB::3xFLAG (A. nidulans) (UniProt C8VTS4); test: affinity purification with mass spectrometry; lysates of conidia (2 day colonies) and ascospores (7 day colonies) of THS20.1 and WT on anti-FLAG M2 affinity gel, washed three times, SDS-PAGE, Coomassie bands cut out, nano-LC-ESI-MS/MS
[2] = target: VelB::3xFLAG (A. nidulans) (UniProt C8VTS4); test: affinity purification with mass spectrometry; lysate of hyphae (mycelium, 18 h in liquid MM at 37°C) of THS20.1 and WT on anti-FLAG M2 affinity gel, washed three times, SDS-PAGE, Coomassie bands cut out, nano-LC-ESI-MS/MS
[3] = target: T1, VelB::3xFLAG (A. nidulans), C8VTS4; test: affinity purification with mass spectrometry; lysates of conidia (2 day colonies) and ascospores (7 day colonies) of THS20.1 and WT on anti-FLAG M2 affinity gel, washed three times, SDS-PAGE, Coomassie bands cut out, nano-LC-ESI-MS/MS; settings: remark: other sources report otherwise

| Binder | binding [1] | binding [2] | binding [3] |
| --- | --- | --- | --- |
| VeA (protein, UniProt C8VTV4 1-573) MATLAAPPPPLGESGNSNSVSRITREGKKITYKLNIMQQPKRARACGQGSKSHTDRRPVDPPPVIELNIFESDPHDDSNKTDITFVYNANFFLFATLEPERPIATGKLMTNQGSPVLTGVPVAGVAYLDKPNRAGYFIFPDLSVRNEGSYRFSFHLFEQIKDPKDATEGTQPMPSPVPGKLSSPQEFLEFRLEVISNPFIVYSAKKFPGLTTSTPISRMIAEQGCRVRIRRDVRMRRRGDKRTEDYDYDNERGYNNRRPDQYAGSDAYANAPERPRSTSISTNMDPYSYPSRRPSAVEYGQPIAQPYQRPMASTPAPSSTPIPAPIPMPGPVALPPSTPSPASAHAPAPPSVPLAAPPPLHTPSYQSHLSFGATQTQYPAPQLSHIPQQTTTPTHPYSPRSSISHSRNQSISEYEPSMGYPGSQTRLSAERPSYGQPSQTTSLPPLRHSLEPSVNSRSKTPSNMITSLPPIQSLSELPSTTSQPSSAIGSSPANEPGPRLWETNSMLSKRTYEESFGHDDRPLYNGMRPDSESYPGGMQRRPSYERSSLLDGPDQMAYKRANGRMVSKPATMR | no binding (only in conidia and ascospores) | binds | – |
| LaeA, C8VQG9 1-374 (protein) MFEMGPVGTRLPAMTSPAHNHYSYHSPTSSDRGRSRQNSDAMDIQSITEREPATRYAVAGGPAPWNRNGSPSMSPMYSNNSERNQFHEENGRTYHGFRRGMYFLPCDEQEQDRLDIFHKLFTVARVSESLIYAPHPTNGRFLDLGCGTGIWAIEVANKYPDAFVAGVDLAPIQPPNHPKNCEFYAPFDFEAPWAMGEDSWDLIHLQMGCGSVMGWPNLYRRIFAHLRPGAWFEQVEIDFEPRCDDRSLDGTALRHWYDCLKQATAETMRPIAHSSRDTIKDLQDAGFTEIDHQIVGLPLNPWHQDEHERKVARWYNLAVSESIENLSLAPFSRVYRWPLERIQQLAADVKSEAFNKEIHAYNILHIYQARKPLR | – | – | no binding |

Reference: paper PMC3457981, “The Role, Interaction and Regulation of the Velvet Regulator VelB in Aspergillus nidulans”
